Experimental data as given in publication PMC12431657, “Discovery and mechanistic insights of dibenzoylmethane as a broad spectrum inhibitor of coronavirus” (PLOS Pathogens, 2025).
Counter-ions that a name gives are not always drawn. Like-named read-outs stand apart in the source and are kept apart here. In all, about 3,300 compounds went through this assay and about 60 (2%) showed an effect of 50% or more. This is one part of the list.

Test system: HCoV-OC43
Parameters: species or system RD; HTS, protection from HCoV-OC43 induced cell death, luminescent cell viability (CellCounting-Lite 2.0), inhibition rate
Conditions: 24 h post infection, 1 h compound pre-incubation, 10 µM, inhibitor

| SMILES | OC43 Inhibition rate [%] | OC43 Inhibition rate (OC43 Inhibition rate, 24 h) [%] |
| --- | --- | --- |
| C=C1C[C@]23C[C@@]1(O)CC[C@H]2[C@@]12C=C[C@H](O)[C@@](C)(C(=O)O1)[C@H]2[C@@H]3C(=O)O [Gibberellic acid] | 0.6 |  |
| COc1cc(/C=C/C(=O)O)cc(O)c1O [5-Hydroxyferulic acid] | 2.7 |  |
| CC(C)=CCc1c(O[C@@H]2O[C@H](CO)[C@@H](O)[C@H](O)[C@H]2O)cc(O)c2c(=O)c(O[C@@H]3O[C@@H](C)[C@H](O)[C@@H](O)[C@H]3O)c(-c3ccc(O)cc3)oc12 [Epimedoside A] | 1 |  |
| CC1=C(CC[C@H](C)CO[C@@H]2O[C@H](CO)[C@@H](O)[C@H](O)[C@H]2O)O[C@H]2C[C@H]3[C@@H]4CC[C@@H]5C[C@@H](O[C@@H]6O[C@H](CO)[C@H](O)[C@H](O)[C@H]6O[C@@H]6O[C@H](CO)[C@@H](O)[C@H](O)[C@H]6O)CC[C@]5(C)[C@H]4CC[C@]3(C)[C@@H]12 [Timosaponin B III] | -1.6 |  |
| O=c1c2cc(O)c(O)cc2oc2cc(O)c([C@@H]3O[C@H](CO)[C@@H](O)[C@H](O)[C@H]3O)c(O)c12 [Mangiferin] | -0.4 |  |
| CCCCCCCCCCCCO [1-Dodecanol] | -0.8 |  |
| CC1=C[C@]2(O)O[C@@]3(CC2=C(C)C)[C@@H](C)CC[C@@H]13 [Curcumenol] | 0.1 |  |
| COc1cc2c(cc1O)-c1cc3ccc(OC)c(OC)c3c[n+]1CC2 [Columbamine] | -2.9 |  |
| COc1ccc(-c2oc3c(CC=C(C)C)c(O)cc(O)c3c(=O)c2O[C@@H]2O[C@@H](C)[C@H](O)[C@@H](O)[C@H]2O[C@@H]2O[C@H](CO)[C@@H](O)[C@H](O)[C@H]2O)cc1 [Sagittatoside A] | 1 |  |
| COc1cc(O)cc(/C=C/c2ccccc2)c1 [Pinosylvin monomethyl ether] | -0.2 |  |
| CC(C)CCCC(C)CCCC(C)CCCCC(C)CCCC(C)CCCC(C)C (stereo not drawn) [Squalane] | -0.3 |  |
| OC[C@H]1O[C@@H](O[C@H]2[C@H](O)[C@@H](O)[C@@H](O)O[C@@H]2CO)[C@H](O)[C@@H](O)[C@H]1O [α-Lactose] | -4.2 |  |
| COc1ccc(-c2cc(=O)c3c(O)cc(O[C@@H]4O[C@H](CO[C@@H]5O[C@@H](C)[C@H](O)[C@@H](O)[C@H]5O)[C@@H](O)[C@H](O)[C@H]4O)cc3o2)cc1O [Diosmin] | 1.4 |  |
| O=C(O)c1ccc2ccccc2n1 [Quinoline-2-carboxylic acid] | 0.7 |  |
| CC1(C)CC[C@]2(C(=O)O)CC[C@]3(C)C(=CC[C@@H]4[C@@]5(C)C[C@H](O)[C@H](O)[C@@](C)(CO)[C@@H]5CC[C@]43C)[C@@H]2C1 [Bayogenin] | -2.5 |  |
| O=C(O)C1CSSC1 [Asparagusic acid] | 0.3 |  |
| Cn1c(=O)ccn([C@@H]2O[C@H](CO)[C@@H](O)[C@H]2O)c1=O [3-Methyluridine] | 0.3 |  |
| O=C(O)[C@@H]1CCCN1 [L-Proline] | 6.9 |  |
| CCOC(=O)C1=C[C@]2(CC)CCCN3CCc4c(n1c1ccccc41)[C@@H]32 [Vinpocetine] | 0.9 |  |
| O=C(/C=C/c1ccc(O[C@@H]2O[C@H](CO)[C@@H](O)[C@H](O)[C@H]2O)cc1)c1ccc(O)cc1O [Isoliquiritin] | 0.3 |  |
| O=C(O)CCCC(O)C(=O)O (stereo not drawn) [2-Hydroxyadipic acid] | -1.2 |  |

| SMILES | OC43 Inhibition rate [%] | OC43 Inhibition rate (OC43 Inhibition rate, 24 h) [%] |
| --- | --- | --- |
| COc1ccccc1O [Guaiacol] | 2.4 |  |
| CCCC[C@@H]1OC(=O)C2=C1CCC=C2 [Senkyunolide A] | 0 |  |
| COc1cc(CCC(C)=O)ccc1O [Zingerone] | 0.6 |  |
| CC(C)=CCC/C(C)=C/COc1c2occc2cc2ccc(=O)oc12 [8-Geranyloxypsoralen] | 40.2 |  |
| COc1cc(O)cc(O)c1C(=O)/C=C/c1ccc(O)cc1 [Helichrysetin] | 0.8 |  |
| N[C@@H](CCC(=O)O)C(=O)O [L-Glutamic acid (monosodium salt)] |  | -1.4 |
| COC(=O)Cc1ccc(C(C)(C)C)cc1 [Methyl p-tert-butylphenylacetate] | -0.2 |  |
| CN(C)[C@@H]1C(O)=C(C(N)=O)C(=O)[C@@]2(O)C(O)=C3C(=O)c4c(O)ccc(Cl)c4[C@@](C)(O)[C@H]3C[C@@H]12 [Chlortetracycline (hydrochloride)] | 1.3 |  |
| O=C1c2ccccc2C(=O)c2c(O)cccc21 [1-Hydroxyanthraquinone] | -2.2 |  |
| COC(=O)C1CCCCC1 [Methyl cyclohexanecarboxylate] | -0.8 |  |
| OC1CCN2Cc3ccccc3N=C12 (racemic) [(±)-Vasicine] | -0.5 |  |
| O=C1C=CCO1 [2(5H)-Furanone] | 4.6 |  |
| C[C@]12CC[C@@H]3c4ccc(O)cc4CC[C@H]3[C@@H]1CCC2=O [Estrone] | -1.1 |  |
| Nc1nc(N)c(O[C@@H]2O[C@H](CO)[C@@H](O)[C@H](O)[C@H]2O)c(=O)[nH]1 [Vicine] | -0.8 |  |
| C[C@H]1CC[C@@]2(OC1)O[C@H]1C[C@H]3[C@@H]4CC[C@@H]5C[C@@H](O[C@@H]6O[C@H](CO)[C@H](O)[C@H](O)[C@H]6O)CC[C@]5(C)[C@H]4CC[C@]3(C)[C@H]1[C@@H]2C [Timosaponin A1] | -0.9 |  |
| CC(=O)c1c(O)c(C)c(O)c2c1OC1=CC(=O)C(C(C)=O)C(=O)C12C (stereo not drawn) [Usnic acid] | -0.2 |  |
| O=C(O)C(=O)c1ccccc1 [Phenylglyoxylic acid] | -0.7 |  |
| COc1cccc(O)c1-c1cc(=O)c2c(O)c(OC)c(OC)c(OC)c2o1 [Skullcapflavone II] | 20.2 |  |
| O=C1CC[C@H](NC(=O)Cc2ccccc2)C(=O)N1 [Antineoplaston A10] | 2 |  |
| CCCCCC1CCCC(=O)O1 (stereo not drawn) [δ-Decalactone] | -1.9 |  |
| COc1ccc(/C=C/C(=O)c2c(O)cc(O[C@@H]3O[C@H](CO[C@@H]4O[C@@H](C)[C@H](O)[C@@H](O)[C@H]4O)[C@@H](O)[C@H](O)[C@H]3O)cc2OC)cc1O [Hesperidin methylchalcone] | -0.1 |  |

Random excerpt: two compounds from above, in no set order.

| SMILES | OC43 Inhibition rate [%] | OC43 Inhibition rate (OC43 Inhibition rate, 24 h) [%] |
| --- | --- | --- |
| CCCC[C@@H]1OC(=O)C2=C1CCC=C2 [Senkyunolide A] | 0 |  |
| O=C(O)C(=O)c1ccccc1 [Phenylglyoxylic acid] | -0.7 |  |
